For this assay, the target named is CP66:6G:g5 protein tagged with Stag epitope (tomato leaf curl virus from New Delhi; E. coli phage M13). In words: fluorescence staining of fixed protoplasts.

Protein sequences, listed by entry. Tags and fused reporters are not part of them. Residues count along the entry.
UniProt P61823, residues 47-150: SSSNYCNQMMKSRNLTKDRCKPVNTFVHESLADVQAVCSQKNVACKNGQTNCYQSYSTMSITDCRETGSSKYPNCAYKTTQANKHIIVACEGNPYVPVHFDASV

These are yes or no findings as the source states them, for the method shown. Some entries that bind do so weakly or less than the wild type.

Take “S-protein coupled to FITC (from UniProt P61823 47-150)”: the binding result was “binds”.

(Values after patent US6852907.)
